## Small-molecule microarray binding calls

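Each compound is printed as two spots on a slide made to bind it covalently, so it has no test concentration; the read-out is fluorescence of the bound, labelled oligonucleotide. The data file lists only calls. An earlier report of the laboratory on the PreQ1, TPP and SAM-II riboswitches (doi:10.1038/s41467-019-09493-3) used 1 µM RNA for 2 h and required a mean Z-score above 3 (spot signal-to-noise against the whole library), a score well above that on a control array, and duplicate spots agreeing (coefficient of variation under 100); it then also set aside compounds that hit other targets, which this list keeps. The cut-offs behind this list may differ. These are primary screening calls, not affinities; a compound without a hit may have attached poorly or may still bind in solution.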
Key: hit = hit, none = tested without a hit.
The compounds are a random part of those screened.
A target missing from an entry has no call listed here.
A dash means that no call is listed here.

Oligonucleotides screened, 5′ to 3′:
SAM-II: SAM-II riboswitch RNA pseudoknot, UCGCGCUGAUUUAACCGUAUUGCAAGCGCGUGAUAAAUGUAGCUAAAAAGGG. About 21,000 compounds screened, about 200 hits.
PreQ1: PreQ1 riboswitch RNA pseudoknot, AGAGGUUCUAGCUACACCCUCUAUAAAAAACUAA. From B. subtilis. About 24,000 compounds screened, about 170 hits.
TPP: TPP riboswitch RNA three-way junction, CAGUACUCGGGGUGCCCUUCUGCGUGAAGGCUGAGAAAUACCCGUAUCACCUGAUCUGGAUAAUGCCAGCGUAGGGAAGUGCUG. About 24,000 compounds screened, about 160 hits.

SMILES	SAM-II	PreQ1	TPP
CCC1(CO)CCCN(C(=O)c2ccc(N3CCN(C)CC3)cc2)C1 (stereo not given)	none	none	none
O=C1C(CCO)Oc2ccccc2N1Cc1cccc(F)c1 (stereo not given)	none	none	none
Cn1ncc2c(N3C[C@H]4CNC[C@H]4C3)nc(C(C)(C)C)nc21	none	none	none
Cc1ccc(Cl)cc1NC(=O)N(C)CCO	none	none	none
O=C(O)CCC(Nc1ncnc2ccccc12)C(=O)O (stereo not given)	none	none	none
COc1ccc(-c2csc(C3=C(N)N(CC4CCCO4)CC3=O)n2)cc1 (stereo not given)	-	none	none
NC1=C(c2nc3ccccc3s2)C(=O)CN1CC1CCCO1 (stereo not given)	-	none	none
Cc1cccc(-c2cccc(NC(=O)NCC3(CO)CC3)c2)c1	none	none	none
COc1cc(CCN)c(OC)c2c1OCO2	none	none	none
CC(C)(O)CCc1cccc(C(=O)NC2CCN(CCO)CC2)c1	none	none	none
C=CCn1cc(CN2CCCC(CO)(CC(C)C)C2)c(C)n1 (stereo not given)	none	none	none
Fc1ccc(-c2cn(CCNc3ccccc3)nn2)cc1Cl	none	none	none
C=CCCC1(C2=CCCCC2)C(=O)NC(=O)NC1=O	none	none	none
CCc1nnc2c(NCc3cccnc3)nc3ccccc3n12	-	none	none
CCc1nc2nc(C)cc(Nc3cccc(F)c3)n2n1	none	none	none
Cc1ccc(CNC(=O)c2nn(-c3ccc(C)cc3)nc2CO)cc1	-	none	none
O=C(c1cc(COc2cccc(F)c2)[nH]n1)N1CC=CC1CO (stereo not given)	none	none	none
COc1cc(C(=O)C(=O)c2ccc(O)c(OC)c2)ccc1O	none	none	none
Cc1ccccc1CNCC1CCCO1 (stereo not given)	none	none	none
CCc1c(C)nc(N)nc1NCCCNc1cccnc1	none	none	none
COc1ccc2c(c1)OC[C@]1(CO)CN(C(=O)c3cc4ncccn4n3)C[C@H]21	none	none	none
Cl.NCCOc1ccc2oc3ccccc3c2c1	none	hit	none
CN1CC(=O)N2CCN(C(=O)c3cc(N)ccn3)CC2C1=O (stereo not given)	none	none	none
CCn1cnc2cc(NCc3ccccc3Cl)ccc21	none	none	none
CN1CCN(C[C@@H]2CN(C(=O)c3conc3-c3ccccc3)C[C@@H]2CO)CC1	none	none	none
N#CC1=C(N)OC2=C(C(=O)CCC2)C12C(=O)Nc1ccccc12 (stereo not given)	none	none	none
COc1ccc(-c2nc3cc(C)ccc3o2)cc1N	none	none	none
Cc1cc2c(c(=O)[nH]1)C1(C(=O)Nc3ccccc31)C(C#N)=C(N)O2 (stereo not given)	none	none	none
COc1ccc(-c2cc3nc(C)cc(NCCC(C)C)n3n2)cc1OC	-	none	none
CC(=O)c1cccc(-n2c3c(c(SC(N)c4cccc5ccccc45)nc2=O)CCC3)c1 (stereo not given)	-	none	none
CNCC(=O)c1ccc2c(c1)OCCO2	none	none	none
COC(=O)C1=C(N)Oc2c(oc(CO)cc2=O)C1c1ccc(F)cc1F (stereo not given)	none	none	none
CCCC(=O)C1=C(NCCc2c(C)[nH]c3ccc(OC)cc23)CC(C)(C)CC1=O	none	none	none
Cc1cc(Nc2ccc(Cl)cc2)c2ccccc2n1	none	none	none
Cc1nc2c(c(NCc3c(C)n[nH]c3C)n1)CNC2	none	none	none
Cc1n[nH]c(C2CC2)c1C(=O)NCCOCCO	none	none	none
CCCOc1ccc(C2C(C#N)=C(N)Oc3[nH]nc(CCC)c32)cc1 (stereo not given)	none	none	none
O=C(CN1C(=O)COc2cccnc21)N1C[C@@H]2CCCN[C@@H]2C1	none	none	none
CCn1cc(-c2ccnc3[nH]c(-c4cccc(CN(C)C)c4)cc23)c(-c2ccc(NC(=O)N(C)C)cc2)n1	none	none	none
O=C(NCc1nc2ccccc2c(=O)[nH]1)c1ccccc1C1CCNC1 (stereo not given)	none	none	none
Cc1ccccc1N1C(=O)C(Oc2ccc(Cl)cc2)C1CNC(C)(C)C (stereo not given)	none	none	none
CC(C)c1ncc(C(=O)N2CC[C@@H](c3ccc4ccccc4c3)[C@H](O)C2)c(=O)[nH]1	none	none	none
CCC(O)c1nc2ccccc2n1CCCOc1c(C)cccc1C (stereo not given)	-	none	none
COc1ccc(CCNCc2ccc(C)cc2C)cc1OC	none	none	none
CCOC(=O)c1cnn(C(=O)OC)c1N	none	none	none
NCc1cc(F)ccc1-c1ccc(C(N)=O)s1	none	none	none
CCCCCNc1nc(CCCC)c2c(c1C#N)CC(C)(C)OC2	none	none	none
Cc1ccc(OCCN2CCN(CC(O)Cn3c4ccccc4c4ccccc43)CC2)cc1.O=C(O)C(=O)O (stereo not given)	none	none	none
COc1cc2c(Nc3ccc(Br)cc3F)ncnc2cc1OCC1CCN(C)CC1	none	none	none
CC(C)(C)c1ccc(OCC(=O)O)cc1	none	none	none
Cl.O=C(O)c1ccc(Cl)c(-c2ccc(CNCC(O)c3ccccc3)o2)c1 (stereo not given)	none	none	none
Cc1nonc1CN1CCC2(CCC(=O)N(CCCO)C2)CC1	none	none	none
CCOC(=O)c1sc2nc(C)c(Cl)c(C)c2c1N	none	none	none
CC1CC(Nc2ccccc2)c2ccccc2N1C(=O)c1sc2ccccc2c1Cl (stereo not given)	none	none	none
Clc1ccc(-c2noc(-c3cccnc3NCc3ccccn3)n2)cc1	-	none	none
N#Cc1c(N)n(Cc2ccccc2)c2nc3ccccc3nc12	hit	none	hit
OC(CNc1ncnc2cccc(F)c12)c1ccco1 (stereo not given)	none	none	none
CCOCCCNc1nc2c(-c3ccccc3)nnn2c2ccccc12	none	none	none
COc1cccc([C@H]2CN(C(=O)c3c(-c4ccccc4)noc3C)C[C@@H]2N)c1	none	none	none
CC1=C(c2cccc(Br)c2)S(=O)(=O)N=C1NC1CCCC1	-	none	none
Cc1cc(C)c(C(N)=O)c(Nc2cccc(Cl)c2C)n1	none	none	none

Once more, the final 7:

{"smiles": "Clc1ccc(-c2noc(-c3cccnc3NCc3ccccn3)n2)cc1", "PreQ1": "none", "TPP": "none"}
{"smiles": "N#Cc1c(N)n(Cc2ccccc2)c2nc3ccccc3nc12", "SAM-II": "hit", "PreQ1": "none", "TPP": "hit"}
{"smiles": "OC(CNc1ncnc2cccc(F)c12)c1ccco1", "stereo": "stereo not given", "SAM-II": "none", "PreQ1": "none", "TPP": "none"}
{"smiles": "CCOCCCNc1nc2c(-c3ccccc3)nnn2c2ccccc12", "SAM-II": "none", "PreQ1": "none", "TPP": "none"}
{"smiles": "COc1cccc([C@H]2CN(C(=O)c3c(-c4ccccc4)noc3C)C[C@@H]2N)c1", "SAM-II": "none", "PreQ1": "none", "TPP": "none"}
{"smiles": "CC1=C(c2cccc(Br)c2)S(=O)(=O)N=C1NC1CCCC1", "PreQ1": "none", "TPP": "none"}
{"smiles": "Cc1cc(C)c(C(N)=O)c(Nc2cccc(Cl)c2C)n1", "SAM-II": "none", "PreQ1": "none", "TPP": "none"}

Calls as published in the ROBIN set (doi:10.1002/anie.202211358).